Article PMC6004055
These are yes or no findings as the source states them, for the method shown. Binding seen in cells or lysates may run through a third protein. Some binding calls cover weakened binding; strength is not graded here.

Amino acid sequences for entries named in this document (tags omitted).
UniProt P48193: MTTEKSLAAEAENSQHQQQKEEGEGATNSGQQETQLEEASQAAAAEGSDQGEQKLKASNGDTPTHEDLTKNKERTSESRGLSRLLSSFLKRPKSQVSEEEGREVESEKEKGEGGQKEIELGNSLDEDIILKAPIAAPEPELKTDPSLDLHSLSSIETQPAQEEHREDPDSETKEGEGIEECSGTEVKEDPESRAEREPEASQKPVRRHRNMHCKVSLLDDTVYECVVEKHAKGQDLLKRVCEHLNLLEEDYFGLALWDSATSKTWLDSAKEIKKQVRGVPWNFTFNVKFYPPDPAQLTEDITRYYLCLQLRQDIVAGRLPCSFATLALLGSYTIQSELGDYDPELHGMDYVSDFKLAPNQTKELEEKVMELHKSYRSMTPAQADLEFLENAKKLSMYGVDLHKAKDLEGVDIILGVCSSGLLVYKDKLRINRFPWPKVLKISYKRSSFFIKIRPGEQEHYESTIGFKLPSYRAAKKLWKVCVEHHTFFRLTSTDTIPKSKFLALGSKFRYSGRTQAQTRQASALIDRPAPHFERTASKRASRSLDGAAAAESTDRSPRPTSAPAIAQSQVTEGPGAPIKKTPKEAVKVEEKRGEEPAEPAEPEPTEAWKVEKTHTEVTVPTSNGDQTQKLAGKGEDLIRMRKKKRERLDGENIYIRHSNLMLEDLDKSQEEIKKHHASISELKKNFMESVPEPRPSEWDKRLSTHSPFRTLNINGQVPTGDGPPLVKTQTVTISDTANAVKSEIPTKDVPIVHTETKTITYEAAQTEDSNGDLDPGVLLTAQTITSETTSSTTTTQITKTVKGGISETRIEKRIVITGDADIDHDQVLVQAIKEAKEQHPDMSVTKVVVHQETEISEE

Molecular target: protein 4.1 (mouse (endogenous in red blood cells)) (UniProt P48193)
Test: co-IP; hemoglobin-depleted mouse RBC lysate incubated 1 h at 37°C with anti-spectrin or anti-protein 4.1 antibody, then 1 h at 37°C with protein A/G magnetic beads; 20 mM Tris pH 7.5, 150 mM NaCl, 5 mM MgCl2, 1 mM DTT, 1% Triton X-100; IGG as negative control; Western blot against SART3

B1: squamous cell carcinoma antigen recognized by T-cells 3 (SART3) (protein, UniProt Q9JLI8 1-962)
chain: MATTAASSASEPEVEPQAGPEAEGEEDEAKPAGVQRKVLSGAVAAEAAEAKGPGWDLQREGASGSDGDEEDAMASSAESSAGEDEWEYDEEEEKNQLEIERLEEQLSINGYDYNCHVELIRLLRLEGELSRVRAARQKMSELFPLTEELWLEWLHDEISMAMDGLDREHVYELFERAVKDYICPNIWLEYGQYSVGGIGQKGGLEKVRSVFERALSSVGLHMTKGLAIWEAYREFESAIVEAARLEKVHSLFRRQLAIPLYEMEATFAEYEEWSEEPMPESVLQSYQKALGQLEKYKPYEEALLQAEAPRLAEYQAYIDFEMKIGDPARIQLIFERALVENCLVPDLWIRYSQYLDRQLKVKDLVLSVHSRAVRNCPWTVALWSRYLLAMERHGLDHQTISATFENALSAGFIQATDYVEIWQVYLDYLRRRVDFRQDSSKELEELRSMFTRALEYLQQEVEERFSESGDPSCLIMQSWARVEARLCNNMQKARELWDSIMTRGNAKYANMWLEYYNLERAHGDTQHCRKALHRAVQCTSDYPEHVCEVLLTMERTEGTLEDWDLAIQKTETRLARVNEQRMKAAEKEAALVQQEEEKAEQRKKVRAEKKALKKKKKTRGADKRREDEDEENEWGEEEEEQPSKRRRTENSLASGEASAMKEETELSGKCLTIDVGPPSKQKEKAASLKRDMPKVAHDSSKDSVTVFVSNLPYSIEEPEVKLRPLFEVCGEVVQIRPIFSNRGDFRGYCYVEFGEEKSAQQALELDRKIVEGRPMFVSPCVDKSKNPDFKVFRYSTTLEKHKLFISGLPFSCTKEELEDICKAHGTVKDLRLVTNRAGKPKGLAYVEYENESQASQAVMKMDGMTIRENVIKVAISNPPQRKVPEKPEVRTAPGAPMLPRQMYGARGKGRTQLSLLPRALQRQGAAPQAENGPAPGPAVAPSVATEAPKMSNADFAKLLLRK
binding: binds
